# Measured values from US20100035866A1, “NOVEL SUBSTITUTED-1, 1-DIOXO-BENZO[1,2,4]THIADIAZIN-3ONES, PREPARATION METHOD THEREOF, AND PHARMACEUTICAL COMPOSITION CONTAINING THE SAME” (KOREA RESEARCH INSTITUTE OF CHEMICAL TECHNOLOGY, priority 2006, published 2010).
# Protein sequences, listed by entry. Tags and fused reporters are not part of them.
# UniProt P14416, whole entry: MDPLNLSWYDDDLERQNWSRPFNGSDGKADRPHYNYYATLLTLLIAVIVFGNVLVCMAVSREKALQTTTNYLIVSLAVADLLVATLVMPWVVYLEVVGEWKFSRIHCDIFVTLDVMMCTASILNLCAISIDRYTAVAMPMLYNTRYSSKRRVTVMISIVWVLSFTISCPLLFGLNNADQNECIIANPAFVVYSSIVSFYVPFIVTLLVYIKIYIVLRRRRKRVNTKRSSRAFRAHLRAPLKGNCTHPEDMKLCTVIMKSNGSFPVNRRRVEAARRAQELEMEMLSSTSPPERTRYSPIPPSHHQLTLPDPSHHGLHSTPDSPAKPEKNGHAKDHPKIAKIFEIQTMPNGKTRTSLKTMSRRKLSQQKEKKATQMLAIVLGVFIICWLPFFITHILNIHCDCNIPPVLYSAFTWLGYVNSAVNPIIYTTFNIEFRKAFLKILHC
# UniProt P50406, whole entry: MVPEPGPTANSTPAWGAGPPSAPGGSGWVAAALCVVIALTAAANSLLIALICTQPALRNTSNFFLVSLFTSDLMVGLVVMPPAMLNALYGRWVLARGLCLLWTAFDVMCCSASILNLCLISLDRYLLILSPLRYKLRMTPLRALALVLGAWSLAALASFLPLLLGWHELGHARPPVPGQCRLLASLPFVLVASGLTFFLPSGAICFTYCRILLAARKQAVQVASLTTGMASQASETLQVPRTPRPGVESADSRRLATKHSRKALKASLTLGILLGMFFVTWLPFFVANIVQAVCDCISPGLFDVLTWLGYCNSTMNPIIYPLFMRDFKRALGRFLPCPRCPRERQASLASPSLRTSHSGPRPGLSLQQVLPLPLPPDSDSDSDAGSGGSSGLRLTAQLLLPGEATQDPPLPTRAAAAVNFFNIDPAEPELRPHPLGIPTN
# At least one structure is not confirmed: it was looked up by name or label, or the drawing left a doubt.
# How the values were obtained:
# 5-HT2c = target: T1, 5-HT2c (Homo sapiens, UniProt P28335); test: Radioligand binding, 5-HT receptor family: 5-HT2c ([3H]Mesulergine); conditions: CHO-K1 human recombinant receptor, [3H]Mesulergine 1 nM
# T1 construct: purchased Euroscreen/BioSignal Packard Inc
# T1 sequence (P28335 33-458): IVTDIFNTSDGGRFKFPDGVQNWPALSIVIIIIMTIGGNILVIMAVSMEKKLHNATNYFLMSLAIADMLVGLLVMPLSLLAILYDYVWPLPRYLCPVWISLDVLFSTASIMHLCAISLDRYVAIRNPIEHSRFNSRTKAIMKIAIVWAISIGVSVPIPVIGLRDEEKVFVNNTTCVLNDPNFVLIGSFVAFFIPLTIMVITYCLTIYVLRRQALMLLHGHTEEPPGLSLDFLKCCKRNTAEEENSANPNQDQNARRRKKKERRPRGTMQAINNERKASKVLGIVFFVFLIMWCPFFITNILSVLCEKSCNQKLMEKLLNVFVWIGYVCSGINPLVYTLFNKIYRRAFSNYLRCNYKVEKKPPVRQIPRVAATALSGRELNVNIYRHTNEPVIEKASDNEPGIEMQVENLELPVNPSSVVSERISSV
# hD2L receptor = target: T2, hD2L receptor (Homo sapiens, UniProt P14416); test: Dopamine receptor family binding: D2 ([3H]spiperone); conditions: [3H]spiperone 1 nM
# T2 construct: purchased BioSignal Packard Inc., Montreal, Canada
# Procedure: (§1) 2-2: Binding Assays of Dopamine Receptor Family
# (§2) The radioligands used were [^3H]spiperone (for hD2L and hD3 receptors, 1 nM) and [^3H] YM-09151-2 (for hD4.2 receptor, 0.06 nM). Radioligand bindings were performed by the protocols provided by the supplier of receptor membranes (BioSignal Packard Inc., Montreal, Canada). Briefly, the buffer used in D2 or D3 receptor binding assay was 50 mM Tris-HCl (pH 7.4), 10 mM MgCl2, 1 mM EDTA, or 50 mM Tris-HCl (pH 7.4), 5 mM MgCl2 5 mM EDTA, 5 mM KCl, 1.5 mM CaCl2, 120 mM NaCl, respectively. In [^3H] YM-09151-2 receptor binding assays, the buffer containing 50 mM Tris-HCl (pH 7.4), 5 mM MgCl2, 5 mM EDTA, 5 mM KCl and 1.5 mM CaCl2 was used. […] Competition binding studies were carried out with 7-8 concentrations of the test compound run in duplicate tubes, and isotherms from three assays were calculated by computerized nonlinear regression analysis (GraphPad Prism Program, San Diego, […]) to yield median inhibitory concentration (IC50) values.
# hD4.2 receptor = target: T3, hD4.2 receptor (Homo sapiens, UniProt P21917, DEL265-296); test: Dopamine receptor family binding: D4 ([3H]YM-09151-2); conditions: [3H]YM-09151-2 0.06 nM
# T3 construct: purchased BioSignal Packard Inc., Montreal, Canada
# T3 sequence (P21917 with tags, fused parts or gaps DEL265-296): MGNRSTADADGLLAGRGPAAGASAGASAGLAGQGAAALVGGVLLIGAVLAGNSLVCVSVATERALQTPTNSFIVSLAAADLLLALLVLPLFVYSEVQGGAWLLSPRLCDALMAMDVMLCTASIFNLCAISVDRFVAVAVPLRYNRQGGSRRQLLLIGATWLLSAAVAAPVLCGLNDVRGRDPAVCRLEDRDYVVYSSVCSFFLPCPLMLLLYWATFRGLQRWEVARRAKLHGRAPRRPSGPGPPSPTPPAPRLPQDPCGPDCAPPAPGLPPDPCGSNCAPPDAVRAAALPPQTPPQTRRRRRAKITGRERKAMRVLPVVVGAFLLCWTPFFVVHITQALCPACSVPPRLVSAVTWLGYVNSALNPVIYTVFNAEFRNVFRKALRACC
# Procedure: as §1, §2
# [1] = background art; cited from earlier work
# 5-HT6 receptors = 5-HT6 receptors (Homo sapiens, UniProt P50406); conditions: antipsychotics, Roth et al. 1994; cited from earlier work
Compound,"Binding affinity, IC50 (nM), 5-HT2c (5-HT2c) [nM]","Binding affinity, IC50 (nM), D2 (hD2L receptor) [nM]","Binding affinity, IC50 (nM), D4 (hD4.2 receptor) [nM]",oral bioavailability [1] [%],binding affinity at 5-HT6 receptors (in words) (5-HT6 receptors)
"COc1ccc(NS(=O)(=O)c2sc3ccc(Cl)cc3c2C)cc1N1CCNCC1 [SB-271046, reference compound]",3963,>10000,>10000,> 80,–
O=c1[nH]c2ccccc2n1C1CCN(CCCC(c2ccc(F)cc2)c2ccc(F)cc2)CC1 [pimozide],–,–,–,–,high affinity
